This passage reports cell number change and AC50 results from PubChem BioAssay AID2685 (National Center for Advancing Translational Sciences (NCATS), 2010).

The other results are listed elsewhere or left out. Shown are side measurements of this screen, not its main read-out; they come without a call. Compounds called inactive in the main read-out are mostly missing here. The note in brackets gives the kind of curve behind each potency; many fits are weak.

This experiment can be described thus: qHTS Assay for Lipid Storage Modulators in Drosophila S3 Cells.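 On cell number change: cells counted by Cell Tracker Red CMTPX staining in the red channel.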 Particulars: BODIPY lipid droplet fluorescence, 18-24 h; for cell number change: measured here: cell count max response, cells fed with added oleic acid. The essentials: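 Drosophila S3 cells loaded with oleic acid (400 uM, as added) and compounds at several concentrations; lipid droplets imaged by 488-nm laser-scanning cytometry, 500–530 nm intensity and object ratio to cell channel. Percent activity normalized to 20 uM Triacsin C.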

The mark [1] stands for this setting: measured here: lipid fluorescence (Fed channel) AC50, cells fed with added oleic acid.
Where [2] appears, read: measured here: cell number channel AC50, cells fed with added oleic acid.

Turning to `CCN1C(=NCCCCO)N[C@@H](c2cccc(F)c2)C(C(=O)OC)=C1C`, the cell number change came to 22.7%.

Take `CC(=O)c1ccc(C(=O)N2CCCC(Nc3ccccc3)C2)s1` (stereo not given): the AC50 (usually the concentration at which the activity in the assay is half-maximal) under setting [1] is 29.1 µM [rising, single point].

Take `COc1cccc(/C(O)=C/c2nc3ccc(C(=O)NCCc4cccc(C)c4)cc3[nH]c2=O)c1`: the cell number change is 5.39%. The AC50 under setting [1] was 18.4 µM [falling, single point].

Take `CC(/C=N/n1c(-c2ccc(Cl)cc2)n[nH]c1=S)=C\c1ccco1`: the cell number change was -58.6%. Moreover, the AC50 under setting [2] was 13 µM [falling, partial curve]. Moreover, under setting [1], the AC50 is 13 µM [falling, partial curve].

Take `C=C(C)C(=O)Nc1cccc(C(C)=O)c1`: the cell number change turned out to be 35.8%. Besides, the AC50 under setting [2] was 0.0231 µM [rising, full curve, poor fit].

For `Cc1cccc(-c2csc(N)c2C(=O)OC(C)C)c1`, the cell number change is -58.5%. Also, under setting [2], the AC50 was 18.4 µM [falling, single point]. Moreover, under setting [1], the AC50 is 16.4 µM [falling, single point].

As to `CN1C(=O)C(C)(C)c2cc(S(=O)(=O)NCC(=O)NCc3ccccc3)ccc21`, the cell number change was -29.1%.

For `CCCCCNC(=O)C(C)NS(=O)(=O)c1ccc(OC)cc1` (stereo not given), the cell number change was -20.1%. The AC50 under setting [2] was 0.103 µM [falling, full curve, poor fit].

For the compound `Cc1ccc(NC(=O)c2ccccc2)cc1C`, the cell number change is -12.1%. The AC50 under setting [1] is 6.51 µM [falling, single point].

For `CCSc1nnc2c3cc(CC)ccc3n(C)c2n1`, the cell number change was 13.2%. The AC50 under setting [1] is 29.1 µM [falling, single point].

Take `CCOC(=O)c1sc(NC(=O)CN(CC)CC)c(C(=O)OCC)c1C`: the cell number change came out at 13.7%. Moreover, the half-maximal activity concentration (AC50) under setting [2] is 0.13 µM [rising, full curve, poor fit]. Under setting [1], the AC50 is 0.58 µM [rising, single point].

Take `COc1cccc(-c2cccc(NC(=O)C3CCN(Cc4ccon4)CC3)c2)c1`: the cell number change is -4.72%. Moreover, the AC50 under setting [1] was 0.58 µM [falling, single point].

Regarding `O=C(COc1nsnc1N1CCOCC1)Nc1ccc(Br)cc1`, the cell number change was -19%.

Consider `CCOc1ccc(OCC(=O)Nc2ccc(OC)cc2[N+](=O)[O-])cc1`, for which the cell number change is -6.8%. Further, the AC50 under setting [1] was 20.6 µM [falling, single point].

`CCOC(=O)c1[nH]c(C)c(C(=O)Nc2cc(Cl)ccc2C)c1C`: under setting [2], the AC50 was 0.116 µM [rising, full curve, poor fit].

In the case of `O=C(COC(=O)c1ccc(O)cc1)NC1CCCCCC1`, the cell number change was determined as 16.6%. Also, the half-maximal activity concentration (AC50) under setting [1] is 3.66 µM [rising, full curve].

As to `N#Cc1cc(N2CCOCC2)nc2ccccc12`, the cell number change amounted to 25.9%.

Take `CC(C)C(NC(=O)c1ccccc1)c1nnc(SCC(=O)Nc2nccs2)n1C` (stereo not given): the cell number change was 4.06%. Also, the AC50 under setting [1] was 0.13 µM [rising, full curve, poor fit].

With `O=C1CC(c2ccc3ccccc3c2)NN1` (stereo not given), the cell number change worked out at 3.82%.

Take `Brc1ccc(-c2nn3c(-c4ccco4)nnc3s2)o1`: the cell number change is -9.24%. Moreover, the AC50 under setting [1] is 1.84 µM [rising, single point].

Regarding `COc1ccc(NC(=O)CC2C(=O)N(CCc3ccccc3)C(=S)N2Cc2cccnc2)cc1` (stereo not given), the cell number change is -10.9%. Moreover, under setting [1], the AC50 is 0.411 µM [falling, full curve, poor fit].

Take `CCc1cc(=O)oc2cc(C)c3c(C)coc3c12`: the cell number change is -6.95%. For the same compound, under setting [1], the AC50 is 4.11 µM [falling, full curve, poor fit].

Take `COc1ccc(OC)c(S(=O)(=O)NC(N)=NCCc2ccccc2OC)c1`: the AC50 under setting [1] was 5.8 µM [rising, single point].

For `Cc1ccc(-c2nc(=O)[nH]c3ccc(Br)cc23)cc1`, the cell number change was -27.2%. Moreover, the AC50 under setting [1] was 9.2 µM [falling, partial curve].

On to `Cc1cccc(-c2nnc(SCC3CNC(=O)O3)n2-c2ccc(Cl)cc2)c1` (stereo not given), for which the cell number change is -0.701%. In addition, the AC50 under setting [1] is 6.51 µM [rising, single point].

As for `O=C(NCCc1nnc2ccc(NCC3CCCO3)nn12)c1ccccc1` (stereo not given), under setting [2], the AC50 is 1.16 µM [falling, full curve, poor fit].

On to `COc1ccc2c(C)cc(SCC(=O)Nc3c(C)n(C)n(-c4ccccc4)c3=O)nc2c1`, for which the cell number change was -14.6%.

For the compound `COc1ccc(NS(=O)(=O)c2cccc(Cl)c2)cc1S(=O)(=O)N1CCCCC1`, the cell number change was -51.4%. Further, the AC50 under setting [2] was 29.1 µM [falling, single point].

For the compound `Cc1cc2c(c(=O)n1Cc1ccccc1)C1O[C@](c3ccsc3)(Cc3ccccc31)O2`, the cell number change is 27.2%. Moreover, the AC50 under setting [1] is 5.96 µM [falling, single point].

On to `COc1ccc(C(=O)OCC(=O)NC2CCCCCC2)c(OC)c1`, for which the cell number change stood at 16.2%. Moreover, under setting [1], the concentration at half-maximal activity (AC50) is 2.91 µM [rising, full curve].

Regarding `COCc1cc(/C=N\NC(=O)Cc2ccc(Cl)cc2)ccc1OC`, the AC50 was 3.66 µM [rising, partial curve] under setting [2] and 29.1 µM [rising, single point] under setting [1].

For `CCn1nc(NC(=O)c2ccncc2)c2cc3ccccc3nc21`, the cell number change stood at 7.82%. For the same compound, under setting [1], the AC50 was 6.51 µM [rising, single point].

Regarding `Cn1c(C(=O)N2CCCc3ccccc32)cc2c(=O)n3ccccc3nc21`, the cell number change is -4.58%.

Regarding `O=C(CSc1nc2ccccc2s1)NCc1ccc2c(c1)OCO2`, the cell number change turned out to be 26.6%. In addition, the AC50 under setting [1] is 0.651 µM [rising, partial curve].

Turning to `Nc1ccncc1N`, the cell number change was -32%. The AC50 under setting [2] was 0.82 µM [falling, full curve, poor fit]. For the same compound, the AC50 under setting [1] is 13 µM [falling, partial curve].

In the case of `Cc1ccc(CS(=O)(=O)c2cn(CC(=O)Nc3ccon3)c3ccccc23)cc1`, the AC50 under setting [2] is 0.231 µM [rising, full curve, poor fit] and the AC50 under setting [1] is 0.326 µM [rising, full curve].

For `O=C(NC(CO)(CO)CO)[C@@H]1CCCN1S(=O)(=O)c1cccc2cccnc12`, the cell number change turned out to be 23.4%. Moreover, the concentration at half-maximal activity (AC50) under setting [1] is 7.31 µM [rising, partial curve, poor fit].

As to `Nc1c(Cl)ncnc1N/N=C/c1ccncc1`, the cell number change was 12.8%. Also, under setting [1], the AC50 is 18.4 µM [rising, single point].

`CN(C)CCCNc1ncnc2c1cnn2-c1ccccc1`: the cell number change was determined as 7%. Further, the AC50 under setting [1] was 6.51 µM [rising, single point].

As for `CC(C)C(=O)Nc1cc(=O)[nH]c2ncnn12`, the AC50 under setting [1] was 29.1 µM [falling, single point].

As to `Cc1ccccc1-n1c(-c2ccncc2)n[nH]c1=S`, the cell number change was -2.43%. Also, the AC50 under setting [1] is 29.1 µM [rising, single point].

On to `COc1cc(NC(=O)COc2ccccc2)c(OC)cc1NC(C)=O`, for which the cell number change was -18.1%. Also, under setting [1], the AC50 was 18.4 µM [falling, partial curve, poor fit].

For `O=C(NC(=O)N1CCN(c2ccc([N+](=O)[O-])cn2)CC1)c1c(Cl)cccc1Cl`, the cell number change was 31.1%. Besides, the AC50 under setting [2] was 2.31 µM [rising, full curve, poor fit].

Take `CCCN(C(=O)C(NC(=O)c1ccccc1)C(C)C)c1c(N)n(Cc2ccccc2)c(=O)[nH]c1=O` (stereo not given): the cell number change came to 17.8%. Besides, under setting [1], the AC50 was 3.26 µM [rising, full curve].

Turning to `C=CCNC(=O)/C(C#N)=C/c1c(C)nn(-c2ccc(Cl)cc2)c1Cl`, the cell number change is 6.94%. Further, under setting [1], the AC50 is 16.4 µM [falling, single point].

Regarding `Cc1c(/C=C/C(=O)c2cccs2)cnn1C`, the cell number change is -27.3%. The AC50 under setting [1] is 29.1 µM [falling, single point].

As for `COc1cccc(CNC(=O)CSCc2cnn(-c3ccccc3)c2-n2cccc2)c1`, the AC50 under setting [1] was 3.66 µM [rising, single point].

With `Cc1cc2c(cc1S(=O)(=O)CCC(=O)NC1CCC(C)CC1)OCC(=O)N2` (stereo not given), the cell number change was -13%.

Regarding `COC(=O)C1=C(C)OC(N)=C(C#N)C1c1cc(OC)c(OCC(N)=O)cc1Cl` (stereo not given), under setting [1], the AC50 was 13 µM [falling, partial curve, poor fit].

Take `COc1ccc(N2CCN(C(=S)Nc3ccccc3)CC2)cc1`: the cell number change was 13.7%. In addition, the AC50 under setting [1] was 29.1 µM [rising, single point].

Turning to `N#Cc1nc(COc2ccccc2)oc1N1CCC(Cc2ccccc2)CC1`, the cell number change was -33.9%. Also, the concentration at half-maximal activity (AC50) under setting [2] was 29.1 µM [falling, single point].

`Cc1ccc(NC(=O)C2(C)Cc3ccccc3C(=O)O2)cc1` (stereo not given): the cell number change was -0.0925%. The AC50 under setting [2] was 6.51 µM [falling, single point]. Moreover, under setting [1], the AC50 was 6.51 µM [falling, single point].

With `COc1ccc(OCC(=O)N2CCN(C(=O)c3ccco3)CC2)cc1`, the cell number change was 42.1%.

As for `O=C(O)c1cccc(Nc2nc(Nc3ccccc3)nc(N3CCCC3)n2)c1`, the cell number change was -10.3%. Further, the half-maximal activity concentration (AC50) under setting [1] is 1.3 µM [falling, partial curve].

Regarding `CCOc1ccc(Cl)cc1/C=N/NC(=O)c1ccccc1`, the cell number change is -17.1%. Besides, under setting [1], the AC50 was 10.3 µM [rising, partial curve].

Regarding `Cc1ccc2c(c1)c1c(n2CC(O)Cn2c(C)nc3ccccc32)CCCC1` (stereo not given), the cell number change was -115%. Further, the AC50 under setting [2] was 29.1 µM [falling, single point]. The AC50 under setting [1] was 18.4 µM [falling, single point].

Consider `CC(=O)Nc1ccc(CNC(=O)C[N+]2(C)CCOCC2)cc1`, for which the cell number change is 2.51%.

Take `COc1ccc(N=Cc2nc(-c3ccccc3)oc2OC(=O)c2ccccc2)cc1`: the cell number change was determined as 33.3%. Further, under setting [2], the half-maximal activity concentration (AC50) is 0.259 µM [rising, partial curve, poor fit]. Also, the AC50 under setting [1] was 13 µM [rising, partial curve, poor fit].

In the case of `CCCCC(=O)N=c1sc2cc([N+](=O)[O-])ccc2n1C`, the cell number change was determined as 2.22%. Besides, under setting [2], the AC50 was 0.164 µM [rising, full curve, poor fit].

Regarding `CC(C)c1ccc(NC(=O)CSc2nc(=O)n(CCCN3CCOCC3)c3c2CCCC3)cc1`, under setting [1], the AC50 was 3.66 µM [falling, single point].

For `COc1ccc(C)cc1S(=O)(=O)NC1CCCC1`, the cell number change was found to be 94.8%. Further, the half-maximal activity concentration (AC50) under setting [2] is 20.6 µM [rising, partial curve, poor fit]. Besides, under setting [1], the AC50 is 11.6 µM [rising, partial curve, poor fit].

As for `Cc1occc1-c1nnc(SCC(=O)c2c[nH]c3ccccc23)n1C`, the cell number change is -21.1%.

For the compound `O=S(=O)(c1ccc(-c2csc(=Nc3ccccc3)n2CCCN2CCOCC2)cc1)N1CCOCC1`, the cell number change was -21.2%. The AC50 under setting [1] is 29.1 µM [falling, single point].
